This is one part of the list.
Key:
Test in all cases: log2 fold change, soluble protein after heating vs DMSO (PISA); higher = thermal stabilisation; K562 lysate, 10 uM; active = over 0.2 and 3.5 SD of the protein, either way, in both replicates (recomputed)
erlotinib = compound: C#Cc1cccc(Nc2ncnc3cc(OCCOC)c(OCCOC)cc23)c1 [erlotinib]
Outline: (§1)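 Soluble protein was defined as the supernatant remaining after 21,000xg for 90 min, following pooling of heated aliquots and adjustment to 0.5% NP-40 at 4°C. Before that, crude K562 extract at 1 mg/mL protein in PBS pH 7.4 with 1 mM MgCl2 was treated with 10 μM compound for 30 min and heated for 3 min across 48°C-58°C. Quantification used TMTpro 16plex LC-MS/MS with channel sums equalised, and values are log-two fold changes in thermal stability relative to solvent controls from duplicates.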

Sequences of proteins named here, by UniProt entry; tags and fusion partners are left off. A change or cut given only in a name is not applied to a line headed by its entry.
UniProt Q9Y4W2: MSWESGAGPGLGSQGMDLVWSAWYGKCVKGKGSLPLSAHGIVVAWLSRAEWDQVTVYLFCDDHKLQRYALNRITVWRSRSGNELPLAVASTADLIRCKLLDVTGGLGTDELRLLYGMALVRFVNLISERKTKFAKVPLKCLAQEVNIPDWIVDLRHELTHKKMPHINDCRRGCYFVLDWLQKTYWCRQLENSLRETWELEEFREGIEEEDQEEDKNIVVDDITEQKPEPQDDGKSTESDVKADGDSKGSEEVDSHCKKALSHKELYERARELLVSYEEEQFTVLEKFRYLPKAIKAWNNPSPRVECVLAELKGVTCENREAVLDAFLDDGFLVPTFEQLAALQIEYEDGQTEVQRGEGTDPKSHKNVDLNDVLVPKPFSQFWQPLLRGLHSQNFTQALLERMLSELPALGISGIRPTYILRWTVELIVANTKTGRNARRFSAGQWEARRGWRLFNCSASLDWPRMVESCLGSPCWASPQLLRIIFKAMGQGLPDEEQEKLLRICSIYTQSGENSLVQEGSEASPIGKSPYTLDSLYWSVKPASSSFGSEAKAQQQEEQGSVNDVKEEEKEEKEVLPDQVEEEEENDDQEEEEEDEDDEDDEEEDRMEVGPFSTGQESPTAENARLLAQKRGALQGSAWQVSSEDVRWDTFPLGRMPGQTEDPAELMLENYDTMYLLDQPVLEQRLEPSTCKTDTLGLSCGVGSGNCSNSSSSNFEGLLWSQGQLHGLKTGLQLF
UniProt Q3MHD2: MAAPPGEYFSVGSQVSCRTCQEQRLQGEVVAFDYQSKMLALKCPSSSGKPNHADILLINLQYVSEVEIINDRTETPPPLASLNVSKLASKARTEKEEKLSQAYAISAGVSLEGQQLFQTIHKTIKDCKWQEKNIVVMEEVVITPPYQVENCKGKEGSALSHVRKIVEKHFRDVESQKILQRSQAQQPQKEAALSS
UniProt O43766: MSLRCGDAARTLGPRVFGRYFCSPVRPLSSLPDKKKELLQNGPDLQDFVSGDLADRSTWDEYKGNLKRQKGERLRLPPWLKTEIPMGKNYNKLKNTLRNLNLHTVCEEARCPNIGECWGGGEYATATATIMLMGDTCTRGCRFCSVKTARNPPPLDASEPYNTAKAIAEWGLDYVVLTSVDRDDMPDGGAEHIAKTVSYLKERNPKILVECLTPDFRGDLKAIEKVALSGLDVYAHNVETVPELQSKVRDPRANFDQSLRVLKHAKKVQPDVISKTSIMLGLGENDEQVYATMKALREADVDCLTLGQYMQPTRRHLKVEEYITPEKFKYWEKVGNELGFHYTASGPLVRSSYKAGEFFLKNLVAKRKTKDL
UniProt Q9BX40: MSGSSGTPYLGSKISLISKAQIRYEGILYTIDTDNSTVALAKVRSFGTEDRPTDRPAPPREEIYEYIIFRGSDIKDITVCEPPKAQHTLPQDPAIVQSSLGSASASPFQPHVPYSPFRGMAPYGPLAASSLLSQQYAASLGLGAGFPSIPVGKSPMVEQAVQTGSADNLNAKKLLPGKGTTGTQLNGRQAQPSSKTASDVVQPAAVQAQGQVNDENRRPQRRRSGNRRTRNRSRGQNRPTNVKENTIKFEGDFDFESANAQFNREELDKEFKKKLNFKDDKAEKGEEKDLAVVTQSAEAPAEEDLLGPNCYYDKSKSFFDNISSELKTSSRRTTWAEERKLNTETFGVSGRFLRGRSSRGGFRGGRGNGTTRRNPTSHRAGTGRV
UniProt P49257: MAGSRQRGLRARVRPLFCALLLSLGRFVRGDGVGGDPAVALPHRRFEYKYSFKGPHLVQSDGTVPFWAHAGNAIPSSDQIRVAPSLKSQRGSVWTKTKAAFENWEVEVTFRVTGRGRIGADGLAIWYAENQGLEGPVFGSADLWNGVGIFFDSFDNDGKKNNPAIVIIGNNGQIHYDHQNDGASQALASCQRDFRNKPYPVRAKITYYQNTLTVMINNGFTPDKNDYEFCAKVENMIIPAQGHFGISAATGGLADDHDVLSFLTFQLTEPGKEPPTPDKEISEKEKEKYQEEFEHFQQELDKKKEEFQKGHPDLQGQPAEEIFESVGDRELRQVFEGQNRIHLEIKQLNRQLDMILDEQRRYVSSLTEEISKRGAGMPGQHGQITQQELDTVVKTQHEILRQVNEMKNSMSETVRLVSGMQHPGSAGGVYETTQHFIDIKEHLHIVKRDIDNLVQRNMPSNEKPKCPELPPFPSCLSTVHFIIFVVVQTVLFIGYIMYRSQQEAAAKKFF
UniProt Q8ND56: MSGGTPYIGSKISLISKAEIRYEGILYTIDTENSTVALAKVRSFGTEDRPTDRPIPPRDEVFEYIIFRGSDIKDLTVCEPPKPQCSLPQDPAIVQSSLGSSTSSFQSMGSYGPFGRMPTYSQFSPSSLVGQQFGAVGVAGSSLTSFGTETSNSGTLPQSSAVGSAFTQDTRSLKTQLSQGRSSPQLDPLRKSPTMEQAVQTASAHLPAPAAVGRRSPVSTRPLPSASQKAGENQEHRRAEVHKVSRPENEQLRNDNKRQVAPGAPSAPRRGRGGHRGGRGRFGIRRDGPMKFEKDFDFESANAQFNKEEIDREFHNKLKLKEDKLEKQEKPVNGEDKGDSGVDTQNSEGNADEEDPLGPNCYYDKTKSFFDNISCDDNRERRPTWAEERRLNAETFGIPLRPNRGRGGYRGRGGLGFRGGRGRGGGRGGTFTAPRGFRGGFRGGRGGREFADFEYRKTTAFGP
UniProt P30533, whole entry, looked up: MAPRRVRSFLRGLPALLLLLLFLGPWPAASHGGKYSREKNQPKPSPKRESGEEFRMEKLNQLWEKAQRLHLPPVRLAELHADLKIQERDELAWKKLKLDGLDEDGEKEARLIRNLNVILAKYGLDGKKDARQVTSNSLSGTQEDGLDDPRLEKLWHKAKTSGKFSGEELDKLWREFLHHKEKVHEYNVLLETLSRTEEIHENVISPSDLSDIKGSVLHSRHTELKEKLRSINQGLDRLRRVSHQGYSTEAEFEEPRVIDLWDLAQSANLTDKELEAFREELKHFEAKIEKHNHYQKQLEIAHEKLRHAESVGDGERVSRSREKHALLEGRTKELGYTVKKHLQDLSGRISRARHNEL
UniProt Q96PV6, whole entry, looked up: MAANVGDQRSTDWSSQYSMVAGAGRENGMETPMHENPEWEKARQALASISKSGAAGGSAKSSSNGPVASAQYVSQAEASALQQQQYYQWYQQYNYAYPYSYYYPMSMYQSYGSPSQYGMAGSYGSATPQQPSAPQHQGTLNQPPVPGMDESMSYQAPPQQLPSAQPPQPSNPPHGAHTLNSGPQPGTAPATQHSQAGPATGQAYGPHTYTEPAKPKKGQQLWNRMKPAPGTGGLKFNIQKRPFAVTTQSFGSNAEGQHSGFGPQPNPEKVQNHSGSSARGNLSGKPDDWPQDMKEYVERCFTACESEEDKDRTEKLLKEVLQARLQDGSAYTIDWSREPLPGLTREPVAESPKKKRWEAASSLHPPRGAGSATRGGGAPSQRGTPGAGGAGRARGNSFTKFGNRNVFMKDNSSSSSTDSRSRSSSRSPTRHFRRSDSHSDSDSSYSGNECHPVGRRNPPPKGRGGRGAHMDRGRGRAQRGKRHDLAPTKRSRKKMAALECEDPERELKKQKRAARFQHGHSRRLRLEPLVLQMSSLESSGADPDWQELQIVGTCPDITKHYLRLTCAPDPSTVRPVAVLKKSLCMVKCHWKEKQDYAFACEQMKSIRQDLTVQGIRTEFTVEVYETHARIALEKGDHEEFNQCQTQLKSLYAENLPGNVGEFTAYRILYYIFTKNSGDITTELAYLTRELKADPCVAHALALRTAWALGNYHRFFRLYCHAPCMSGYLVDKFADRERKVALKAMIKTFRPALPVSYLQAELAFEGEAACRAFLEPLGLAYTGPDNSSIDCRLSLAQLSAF
UniProt Q92539: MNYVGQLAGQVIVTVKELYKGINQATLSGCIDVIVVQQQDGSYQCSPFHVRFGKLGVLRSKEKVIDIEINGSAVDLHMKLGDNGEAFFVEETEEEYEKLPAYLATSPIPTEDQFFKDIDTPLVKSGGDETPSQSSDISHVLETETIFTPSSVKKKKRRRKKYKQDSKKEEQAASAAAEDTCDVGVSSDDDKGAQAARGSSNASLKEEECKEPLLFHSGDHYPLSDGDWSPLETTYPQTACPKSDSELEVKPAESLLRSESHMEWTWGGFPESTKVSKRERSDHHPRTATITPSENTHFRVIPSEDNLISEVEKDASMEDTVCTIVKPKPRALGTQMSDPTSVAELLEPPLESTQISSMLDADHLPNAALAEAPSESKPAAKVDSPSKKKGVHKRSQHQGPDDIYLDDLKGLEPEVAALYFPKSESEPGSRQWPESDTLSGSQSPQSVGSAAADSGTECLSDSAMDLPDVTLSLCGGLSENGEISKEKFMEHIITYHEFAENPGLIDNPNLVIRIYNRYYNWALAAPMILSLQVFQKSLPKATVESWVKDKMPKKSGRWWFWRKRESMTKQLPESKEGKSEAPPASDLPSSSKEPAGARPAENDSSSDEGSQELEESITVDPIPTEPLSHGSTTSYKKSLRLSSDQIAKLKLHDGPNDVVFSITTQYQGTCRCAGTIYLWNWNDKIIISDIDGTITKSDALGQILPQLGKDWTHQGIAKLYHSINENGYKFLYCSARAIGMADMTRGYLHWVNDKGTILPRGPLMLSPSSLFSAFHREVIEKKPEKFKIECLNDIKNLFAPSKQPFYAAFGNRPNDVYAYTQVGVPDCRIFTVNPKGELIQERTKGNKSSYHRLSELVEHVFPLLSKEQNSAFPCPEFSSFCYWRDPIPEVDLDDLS
UniProt Q12907: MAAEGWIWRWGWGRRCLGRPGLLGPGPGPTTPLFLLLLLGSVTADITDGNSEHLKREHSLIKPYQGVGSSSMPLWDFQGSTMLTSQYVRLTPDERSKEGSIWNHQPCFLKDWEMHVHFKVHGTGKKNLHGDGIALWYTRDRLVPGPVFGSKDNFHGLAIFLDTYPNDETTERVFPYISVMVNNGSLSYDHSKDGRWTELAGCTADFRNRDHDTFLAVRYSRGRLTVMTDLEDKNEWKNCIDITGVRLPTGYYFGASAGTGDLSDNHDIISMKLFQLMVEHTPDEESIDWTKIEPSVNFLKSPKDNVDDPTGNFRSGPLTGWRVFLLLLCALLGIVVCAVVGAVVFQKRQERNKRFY
UniProt Q9BQK8: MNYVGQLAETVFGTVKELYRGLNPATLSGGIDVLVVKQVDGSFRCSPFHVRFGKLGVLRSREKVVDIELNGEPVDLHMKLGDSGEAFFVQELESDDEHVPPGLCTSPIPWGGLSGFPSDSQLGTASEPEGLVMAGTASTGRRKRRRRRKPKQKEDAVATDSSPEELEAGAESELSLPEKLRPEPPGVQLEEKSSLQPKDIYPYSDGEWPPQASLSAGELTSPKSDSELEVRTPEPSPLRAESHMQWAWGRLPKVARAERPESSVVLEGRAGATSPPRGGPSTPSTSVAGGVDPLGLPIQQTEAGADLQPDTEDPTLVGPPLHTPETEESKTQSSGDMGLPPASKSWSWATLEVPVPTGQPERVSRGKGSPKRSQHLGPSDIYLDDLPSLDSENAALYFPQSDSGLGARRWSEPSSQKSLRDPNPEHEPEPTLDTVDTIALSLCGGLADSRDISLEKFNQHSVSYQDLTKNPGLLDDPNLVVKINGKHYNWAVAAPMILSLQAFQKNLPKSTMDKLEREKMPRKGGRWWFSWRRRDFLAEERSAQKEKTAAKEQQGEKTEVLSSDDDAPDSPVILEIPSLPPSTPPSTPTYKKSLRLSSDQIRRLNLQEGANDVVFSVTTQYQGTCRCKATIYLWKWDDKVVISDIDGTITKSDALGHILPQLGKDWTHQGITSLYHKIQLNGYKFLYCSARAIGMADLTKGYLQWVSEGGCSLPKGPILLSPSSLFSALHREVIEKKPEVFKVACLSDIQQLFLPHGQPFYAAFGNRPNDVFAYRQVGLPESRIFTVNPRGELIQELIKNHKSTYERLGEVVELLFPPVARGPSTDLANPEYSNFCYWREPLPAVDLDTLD
UniProt Q9NUP9: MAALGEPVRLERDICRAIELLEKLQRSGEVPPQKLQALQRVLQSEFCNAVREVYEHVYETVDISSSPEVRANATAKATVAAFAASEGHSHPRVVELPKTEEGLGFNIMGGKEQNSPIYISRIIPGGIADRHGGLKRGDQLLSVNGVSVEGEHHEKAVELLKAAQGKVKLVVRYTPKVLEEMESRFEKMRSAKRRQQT

[1] = compound: C/C(=N\NC(=O)C1=CC(=CC=C1)S(=O)(=O)N2CCOCC2)/C3=C(C=CC(=C3)Cl)O
Outline: as §1

[2] = compound: C1=CC(=CC=C1C2=NC3=C(N2)C=C(C=C3)C(=O)N)OC4=CC=C(C=C4)Cl
Outline: as §1

[3] = compound: C1=CC2=C(C=CC(=C2)/C=C\3/C(=O)NC(=NCC4=CC=CS4)S3)N=C1
Outline: as §1

[4] = compound: C1=CC2=NC=CN=C2C=C1/C=C/3\C(=O)NC(=O)S3
Outline: as §1

[5] = compound: C1=CC=C(C=C1)C2=NC(=C(N2)C3=CC=NC=C3)C4=CC(=C(C=C4)Cl)O
Outline: as §1

[6] = compound: C1=CC=C2C(=C1)C3=NNC4=CC=CC(=C43)C2=O
Outline: as §1

[7] = compound: C1CCN(C1)C(=O)NC2=CC=CC(=C2)NC3=NC=C(C(=N3)NCCC4=CN=CN4)Br
Outline: as §1

[8] = compound: C1CN(CCC1(CC2=CC=C(C=C2)Cl)N)C3=NC=NC4=C3C=CN4
Outline: as §1

IRAK-1-4 Inhibitor I = compound: C1COCCN1CCN2C3=CC=CC=C3N=C2NC(=O)C4=CC(=CC=C4)[N+](=O)[O-] [IRAK-1-4 Inhibitor I]
Outline: as §1

ibrutinib = compound: C=CC(=O)N1CCC[C@@H](n2nc(-c3ccc(Oc4ccccc4)cc3)c3c(N)ncnc32)C1 [ibrutinib]
Outline: as §1

[9] = compound: CC(=O)c1cnc2ccc(-c3cc(Cl)c(O)c(Cl)c3)nc2c1N[C@H]1CC[C@H](CN(C)C)CC1
Outline: as §1

ralimetinib = compound: CC(C)(C)Cn1c(N)nc2ccc(-c3[nH]c(C(C)(C)C)nc3-c3ccc(F)cc3)nc21 [ralimetinib]
Outline: as §1

[10] = compound: CC(C)(O)CC(=O)NCCn1ccc2ncnc(Nc3ccc(Oc4cccc(C(F)(F)F)c4)c(Cl)c3)c21
Outline: as §1

[11] = compound: CC(C)C1=C2N=C(C=C(N2N=C1)NCC3=CC=CC=C3)NCCCCCCN
Outline: as §1

[12] = compound: CC1=C(C(CC(=O)N1)C2=CC=C(C=C2)C(F)(F)F)C(=O)NC3=C(C=C4C(=C3)C=NN4)F
Outline: as §1

[13] = compound: CC1=C(C2=C(C=C1)C(=O)C3=CC=CC=C3N2CCCN)C
Outline: as §1

[14] = compound: CC1=C(C=C(C=C1)NC(=O)C2=CC(=CC=C2)C(C)(C)C#N)NC3=CC4=C(C=C3)N=CN(C4=O)C
Outline: as §1

[15] = compound: CC1=C(C=C(C=C1)NC(=O)C2=CC(=CC=C2)N(C)C)NC(=O)C3=CC=C(C=C3)O
Outline: as §1

[16] = compound: CC1=CC=C(C=C1)SC2=C3C=C(SC3=CN=C2)C(=O)N
Outline: as §1

Measured: log2 fold change

LIG1 (UniProt P18858)
inactive: erlotinib 0.001 | [1] -0.001 | [2] 0.024 | [3] 0.002 | [4] -0.003 | [5] 0.009 | [6] -0.001 | [7] -0.036 | [8] 0 | IRAK-1-4 Inhibitor I -0.013 | ibrutinib 0.007 | [9] -0.024 | ralimetinib 0.016 | [10] -0.032 | [11] 0 | [12] -0.009 | [13] 0.03 | [14] 0.023 | [15] 0 | [16] -0.023

LAS1L (UniProt Q9Y4W2)
inactive: erlotinib 0.053 | [1] -0.011 | [2] -0.003 | [3] -0.018 | [4] 0.022 | [5] 0.007 | [6] 0.028 | [7] -0.004 | [8] -0.027 | IRAK-1-4 Inhibitor I -0.002 | ibrutinib -0.016 | [9] 0.017 | ralimetinib 0.043 | [10] -0.017 | [11] 0.042 | [12] 0.035 | [13] -0.061 | [14] -0.006 | [15] 0.037 | [16] 0.035

LSM12 (UniProt Q3MHD2)
inactive: erlotinib -0.023 | [1] -0.135 | [2] 0.056 | [3] 0.013 | [4] 0.001 | [5] -0.017 | [6] -0.006 | [7] -0.022 | [8] 0.008 | IRAK-1-4 Inhibitor I 0.013 | ibrutinib -0.005 | [9] 0.014 | ralimetinib -0.032 | [10] -0.008 | [11] -0.027 | [12] -0.004 | [13] -0.038 | [14] -0.036 | [15] -0.004 | [16] -0.004

LIAS (UniProt O43766)
inactive: erlotinib -0.051 | [1] -0.021 | [2] 0.042 | [3] -0.085 | [4] -0.005 | [5] 0.064 | [6] 0.03 | [7] -0.041 | [8] -0.018 | IRAK-1-4 Inhibitor I 0.026 | ibrutinib 0.051 | [9] 0.047 | ralimetinib -0.028 | [10] -0.047 | [11] -0.063 | [12] -0.003 | [13] -0.025 | [14] -0.006 | [15] -0.018 | [16] 0.022

LSM14B isoform 2 (UniProt Q9BX40)
inactive: erlotinib -0.027 | [1] -0.05 | [2] -0.013 | [3] -0.015 | [4] -0.055 | [5] -0.05 | [6] 0.054 | [7] -0.044 | [8] 0.043 | IRAK-1-4 Inhibitor I -0.009 | ibrutinib 0.024 | [9] 0.001 | ralimetinib 0.029 | [10] 0.135 | [11] -0.001 | [12] -0.012 | [13] 0.019 | [14] -0.001 | [15] 0.027 | [16] 0.035

LCP1 (UniProt P13796)
inactive: erlotinib -0.012 | [1] 0.002 | [2] 0.024 | [3] -0.008 | [4] -0.018 | [5] 0.008 | [6] 0.007 | [7] 0 | [8] 0.001 | IRAK-1-4 Inhibitor I 0.005 | ibrutinib -0.006 | [9] -0.007 | ralimetinib -0.016 | [10] -0.024 | [11] -0.015 | [12] -0.017 | [13] -0.023 | [14] 0.023 | [15] -0.001 | [16] -0.019

LEO1 (UniProt Q8WVC0)
inactive: erlotinib 0.014 | [1] -0.043 | [2] -0.024 | [3] -0.01 | [4] 0.009 | [5] 0.027 | [6] -0.042 | [7] 0.013 | [8] -0.015 | IRAK-1-4 Inhibitor I 0.017 | ibrutinib -0.032 | [9] -0.019 | ralimetinib 0.007 | [10] -0.035 | [11] -0.024 | [12] -0.025 | [13] -0.026 | [14] 0.029 | [15] -0.006 | [16] -0.017

LMAN1 (UniProt P49257)
inactive: erlotinib -0.011 | [1] -0.018 | [2] 0.06 | [3] 0 | [4] -0.013 | [5] -0.009 | [6] -0.029 | [7] -0.006 | [8] 0.004 | IRAK-1-4 Inhibitor I 0.01 | ibrutinib -0.02 | [9] -0.038 | ralimetinib -0.015 | [10] -0.036 | [11] -0.012 | [12] 0.01 | [13] -0.037 | [14] -0.001 | [15] 0.022 | [16] -0.029

LONP1 (UniProt P36776)
inactive: erlotinib -0.001 | [1] -0.04 | [2] 0.024 | [3] 0.005 | [4] -0.016 | [5] 0.002 | [6] 0.002 | [7] 0.027 | [8] 0.014 | IRAK-1-4 Inhibitor I -0.019 | ibrutinib -0.023 | [9] -0.038 | ralimetinib 0.003 | [10] -0.003 | [11] 0.006 | [12] -0.013 | [13] -0.012 | [14] -0.031 | [15] -0.003 | [16] -0.015

LSM14A isoform 2 (UniProt Q8ND56)
inactive: erlotinib 0.01 | [1] -0.09 | [2] 0.008 | [3] 0.021 | [4] 0.007 | [5] -0.027 | [6] 0.036 | [7] 0.015 | [8] 0.01 | IRAK-1-4 Inhibitor I 0.021 | ibrutinib -0.056 | [9] -0.005 | ralimetinib -0.016 | [10] 0.022 | [11] -0.009 | [12] -0.005 | [13] 0.037 | [14] 0.036 | [15] -0.001 | [16] -0.028

LRPAP1 (UniProt P30533)
inactive: erlotinib -0.051 | [1] -0.006 | [2] 0.008 | [3] -0.03 | [4] 0.014 | [5] -0.017 | [6] -0.078 | [7] 0.046 | [8] -0.016 | IRAK-1-4 Inhibitor I 0.018 | ibrutinib -0.003 | [9] -0.003 | ralimetinib -0.056 | [10] -0.025 | [11] 0.004 | [12] 0.006 | [13] 0 | [14] -0.028 | [15] -0.012 | [16] -0.035

LENG8 (UniProt Q96PV6)
inactive: erlotinib 0.023 | [1] 0.047 | [2] -0.007 | [3] -0.07 | [4] 0.027 | [5] -0.017 | [6] -0.089 | [7] 0.025 | [8] 0.198 | IRAK-1-4 Inhibitor I 0.054 | ibrutinib -0.062 | [9] -0.033 | ralimetinib -0.059 | [10] -0.046 | [11] -0.395 | [12] 0.052 | [13] 0.042 | [14] -0.206 | [15] 0.164 | [16] -0.016

LPIN2 (UniProt Q92539)
inactive: erlotinib -0.029 | [1] -0.004 | [2] 0.027 | [3] 0.057 | [4] -0.02 | [5] 0.003 | [6] 0.088 | [7] 0.018 | [8] -0.042 | IRAK-1-4 Inhibitor I 0.022 | ibrutinib 0.005 | [9] 0.043 | ralimetinib -0.012 | [10] -0.035 | [11] 0.024 | [12] 0.167 | [13] 0.013 | [14] 0.06 | [15] 0.062 | [16] -0.003

Two records drawn at random from the list so far, as already listed:
LRPAP1 (UniProt P30533)
inactive: erlotinib -0.051 | [1] -0.006 | [2] 0.008 | [3] -0.03 | [4] 0.014 | [5] -0.017 | [6] -0.078 | [7] 0.046 | [8] -0.016 | IRAK-1-4 Inhibitor I 0.018 | ibrutinib -0.003 | [9] -0.003 | ralimetinib -0.056 | [10] -0.025 | [11] 0.004 | [12] 0.006 | [13] 0 | [14] -0.028 | [15] -0.012 | [16] -0.035

LONP1 (UniProt P36776)
inactive: erlotinib -0.001 | [1] -0.04 | [2] 0.024 | [3] 0.005 | [4] -0.016 | [5] 0.002 | [6] 0.002 | [7] 0.027 | [8] 0.014 | IRAK-1-4 Inhibitor I -0.019 | ibrutinib -0.023 | [9] -0.038 | ralimetinib 0.003 | [10] -0.003 | [11] 0.006 | [12] -0.013 | [13] -0.012 | [14] -0.031 | [15] -0.003 | [16] -0.015

Further results follow:

LMAN2 (UniProt Q12907)
inactive: erlotinib -0.003 | [1] 0.052 | [2] -0.017 | [3] 0.006 | [4] 0 | [5] 0.002 | [6] -0.014 | [7] -0.009 | [8] 0.022 | IRAK-1-4 Inhibitor I -0.002 | ibrutinib -0.05 | [9] 0.008 | ralimetinib -0.025 | [10] 0.012 | [11] 0.003 | [12] 0.016 | [13] -0.003 | [14] 0.034 | [15] -0.032 | [16] 0.007

LPIN3 isoform 2 (UniProt Q9BQK8)
inactive: erlotinib 0.025 | [1] -0.03 | [2] -0.017 | [3] 0.041 | [4] -0.005 | [5] 0.017 | [6] -0.097 | [7] -0.073 | [8] -0.05 | IRAK-1-4 Inhibitor I -0.025 | ibrutinib -0.071 | [9] 0.026 | ralimetinib 0.004 | [10] -0.02 | [11] -0.12 | [12] -0.057 | [13] -0.148 | [14] 0 | [15] 0.015 | [16] -0.034

LIN7C (UniProt Q9NUP9)
inactive: erlotinib 0.038 | [1] -0.053 | [2] -0.008 | [3] -0.026 | [4] 0.002 | [5] -0.01 | [6] 0.068 | [7] 0.032 | [8] -0.001 | IRAK-1-4 Inhibitor I -0.073 | ibrutinib 0.037 | [9] 0.051 | ralimetinib 0.077 | [10] 0.099 | [11] -0.012 | [12] 0.028 | [13] 0.009 | [14] -0.025 | [15] -0.042 | [16] -0.011
